From patent US8580511B2, “Two-color fluorescent reporter for alternative pre-mRNA splicing” (The Regents of the University of California, priority 2006, dated 2013)

System: exon 10 of the human tau gene
Assay: High-throughput small molecule screen with two-color fluorescent (GFP/RFP) splicing reporter in stable cell line
Assay type: cell-based
Conditions: log2 of RFP/GFP fluorescence, background subtracted, Lowess normalized; enzyme inhibitor library; 16 hours incubation; DMSO control −0.21
Excerpt: Exon 10 of the human tau gene (SEQ ID NO:9; see also, GenBank Accession No. AF027494) containing short stretches (about 50-100 nucleotides) of each of the flanking introns (i.e., intronic sequences from introns 9 and 10; see, e.g., Wang et al., J. Neurochem., 88:1078-1090 (2004)) was cloned into the EcoRI and BamHI restriction sites of the reporter intron (SEQ ID NO:2), which interrupts the start codon of the GFP open reading frame. The clone was linearized using DraIII and transfected into adherent mammalian cells.
Since the fluorescence of some of the compounds screened could increase the background fluorescence by an order of magnitude, the background was calculated and subtracted for each well. In particular, the background was calculated by measuring the fluorescence of each channel after excitation with shorter wavelengths than the optimal for the reporter proteins. This measurement was corrected using data from non-reporter cells before being subtracted from the reporter-expressing cells as background. […]
The two-color fluorescent reporter constructs described above carrying exon 10 of the human tau gene were used in high-throughput small molecule screens of a library of enzyme inhibitors (FIG. 6A) and a library of FDA approved drugs (FIG. 6B). […] The fluorescence intensities were measured using an Analyst AD plate reader. […]

COC(=O)C1=C(C)NC(C)=C(C(=O)OC)C1c1ccccc1[N+](=O)[O-] [NIFEDIPINE] gave a Log-ratio of 0.64.
